Data from US20100239566.
For part of these data: At least one result comes from cells or an extract, where the contact may be indirect. Protein sequences can lack the tags named with them.

Experiments:
[1] = biological target: T1, SRF (serum response factor) (UniProt P11831); test: binding assay; conditions: ChIP with anti-SRF antibody and PCR, HLK3 treated or not with serum, protein in cells, protein details: endogenous
T1 sequence (looked up, limits assumed): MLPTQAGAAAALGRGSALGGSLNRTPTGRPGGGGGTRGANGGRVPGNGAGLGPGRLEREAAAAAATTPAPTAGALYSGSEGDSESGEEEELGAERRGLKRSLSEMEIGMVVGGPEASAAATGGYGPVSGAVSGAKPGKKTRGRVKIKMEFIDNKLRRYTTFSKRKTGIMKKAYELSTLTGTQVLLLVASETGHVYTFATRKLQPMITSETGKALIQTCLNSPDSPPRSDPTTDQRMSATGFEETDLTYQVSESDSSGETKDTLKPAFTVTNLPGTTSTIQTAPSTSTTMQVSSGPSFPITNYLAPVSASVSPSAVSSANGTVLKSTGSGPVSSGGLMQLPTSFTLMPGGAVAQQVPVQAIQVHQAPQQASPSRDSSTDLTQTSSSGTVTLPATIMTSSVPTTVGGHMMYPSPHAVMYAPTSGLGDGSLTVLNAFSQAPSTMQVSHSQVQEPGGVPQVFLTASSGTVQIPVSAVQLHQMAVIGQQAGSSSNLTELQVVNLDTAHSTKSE

[2] = biological target: T1, SRF (serum response factor); test: activity in cells; conditions: indirect: luciferase reporter induced dose-dependently by serum, FGF or HGF in HLK3, protein in cells, protein details: endogenous, only the site is given
[3] = biological target: T1, SRF (serum response factor); test: EMSA; conditions: nuclear extract of HLK3 treated or not with serum; anti-SRF antibody added; 6% acrylamide gel; probe printed as 5'-CTATATAAGG X3; protein in an extract; label: 32P

CTATATAAGG (double strand) [Enigma promoter SRE region (chromatin)]
binding result [1]: binds

CTATATAAGG (double strand) [Enigma promoter SRE-Luc reporter]
activity on this sequence [2]: active

CTATATAAGGCTATATAAGGCTATATAAGG (double strand) [Enigma promoter SRE x3 probe]
binding result [3]: binds
